Measurements: publication PMC9964254, “Caspase Inhibition Modulates Monocyte-Derived Macrophage Polarization in Damaged Tissues” (International Journal of Molecular Sciences, 2023)
No constants are given. Whether binding was seen depends on the method and setting. Binding seen in cells or lysates may run through a third protein. Some entries that bind do so weakly or less than the wild type.

Protein sequences, listed by entry. Tags and fused reporters are not part of them.
UniProt P14598: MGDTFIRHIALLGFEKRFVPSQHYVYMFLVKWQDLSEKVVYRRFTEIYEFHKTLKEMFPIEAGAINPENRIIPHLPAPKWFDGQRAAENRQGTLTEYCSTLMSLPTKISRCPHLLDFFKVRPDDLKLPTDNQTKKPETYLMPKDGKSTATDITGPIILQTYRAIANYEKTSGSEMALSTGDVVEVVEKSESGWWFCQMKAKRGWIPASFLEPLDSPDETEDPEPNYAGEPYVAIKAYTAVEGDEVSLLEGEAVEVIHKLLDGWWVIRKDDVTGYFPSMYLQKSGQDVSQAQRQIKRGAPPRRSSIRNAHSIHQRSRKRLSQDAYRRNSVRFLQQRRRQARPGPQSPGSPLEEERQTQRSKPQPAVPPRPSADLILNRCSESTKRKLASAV

Key:
[1] = biological target: T1, NOX2 (human (endogenous in peripheral blood monocytes)) (UniProt P04839); assay: proximity ligation; Duolink in situ PLA on fixed, permeabilised human monocytes treated with CSF-1 (100 ng/mL, 4 days); primary antibodies to the two proteins, confocal imaging
T1 sequence: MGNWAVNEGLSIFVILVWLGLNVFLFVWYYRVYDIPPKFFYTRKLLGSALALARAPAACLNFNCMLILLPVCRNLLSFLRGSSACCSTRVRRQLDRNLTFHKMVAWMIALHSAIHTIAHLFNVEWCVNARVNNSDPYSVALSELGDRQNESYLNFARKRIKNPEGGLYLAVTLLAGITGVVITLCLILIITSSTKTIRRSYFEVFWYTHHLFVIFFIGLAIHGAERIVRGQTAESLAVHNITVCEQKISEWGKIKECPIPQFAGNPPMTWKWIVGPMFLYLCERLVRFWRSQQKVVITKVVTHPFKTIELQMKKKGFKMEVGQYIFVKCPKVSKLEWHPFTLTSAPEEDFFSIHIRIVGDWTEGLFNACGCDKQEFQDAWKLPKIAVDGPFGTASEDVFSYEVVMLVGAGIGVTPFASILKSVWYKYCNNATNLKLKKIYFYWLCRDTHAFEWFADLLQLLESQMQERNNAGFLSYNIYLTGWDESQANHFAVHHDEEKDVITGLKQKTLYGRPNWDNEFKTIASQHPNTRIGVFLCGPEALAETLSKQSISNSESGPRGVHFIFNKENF

[2] = biological target: T1, NOX2 (human (endogenous in peripheral blood monocytes)); assay: proximity ligation; Duolink in situ PLA on fixed, permeabilised human monocytes treated with CSF-1 (100 ng/mL, 4 days) in the presence of 50 µM Q-VD-OPh

binding [1]: binds
binding [2]: binds weakly
Substance: p47^PHOX (endogenous, in monocytes) (from UniProt P14598 1-390)
